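Primary screen of methionyl-tRNA synthetase; the read-out is not stated. Target: Methionyl-tRNA synthetase (putative), Leishmania donovani (UniProt E9BF75). The test concentration is not given. The values are filed as inhibition. Of about 68,000 compounds tested this way, about 24 (0.035%) reached 50% or more in at least one test.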

The chains behind the UniProt entries cited, without tags or fusion partners.
UniProt E9BF75, entry or part of it: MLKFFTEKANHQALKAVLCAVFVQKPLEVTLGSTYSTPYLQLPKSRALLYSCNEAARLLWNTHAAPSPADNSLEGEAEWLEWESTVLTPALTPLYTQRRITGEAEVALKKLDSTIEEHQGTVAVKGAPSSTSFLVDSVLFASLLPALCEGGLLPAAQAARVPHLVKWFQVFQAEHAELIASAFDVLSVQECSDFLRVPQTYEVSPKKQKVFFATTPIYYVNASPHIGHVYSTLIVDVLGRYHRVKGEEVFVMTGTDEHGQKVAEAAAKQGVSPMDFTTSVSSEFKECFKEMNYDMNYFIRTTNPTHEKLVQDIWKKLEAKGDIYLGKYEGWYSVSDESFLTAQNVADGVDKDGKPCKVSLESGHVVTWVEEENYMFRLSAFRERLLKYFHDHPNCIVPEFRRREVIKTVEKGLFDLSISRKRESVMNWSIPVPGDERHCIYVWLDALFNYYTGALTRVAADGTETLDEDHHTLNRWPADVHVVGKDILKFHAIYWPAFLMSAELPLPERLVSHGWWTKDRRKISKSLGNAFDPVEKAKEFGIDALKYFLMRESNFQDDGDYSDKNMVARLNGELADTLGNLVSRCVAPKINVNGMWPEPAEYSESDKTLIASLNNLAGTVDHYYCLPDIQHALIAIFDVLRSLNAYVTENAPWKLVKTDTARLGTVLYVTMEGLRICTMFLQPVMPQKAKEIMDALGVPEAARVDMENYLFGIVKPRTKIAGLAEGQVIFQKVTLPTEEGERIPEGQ

All values are in %. The controls that fix the scale are not given in the record; negative values are as filed. Compounds were drawn at random from those tested, without regard to their results.

{"compound": "CC(C)(C)C(=O)NCc1cnn2ccccc12", "inhibition": 12.32}
{"compound": "Cn1cc(Cl)c(CN2CCn3nc(C(=O)N4CCCC4)cc3C2)n1", "inhibition": 6.863}
{"compound": "Cc1cccc(CN2CCC[C@@H]3CN(C(=O)c4ccco4)C[C@@H]32)n1", "inhibition": 2.614}
{"compound": "COCCN1C[C@@H]2CCCO[C@@H]2[C@H](NC(=O)c2cnccn2)C1", "inhibition": 21.34}
{"compound": "Cc1cnn(CCC(=O)NS(=O)(=O)N2CCCc3ccccc32)c1", "inhibition": 9.218}
{"compound": "Cc1noc(C)c1-c1ccc(C2CCCN2C(=O)c2cccnn2)nc1", "stereo": "configuration not stated", "inhibition": 3.859}
{"compound": "COC(=O)CCCC(=O)N(C)CC1Cc2ccccc2CN1C", "stereo": "configuration not stated", "inhibition": 12.58}
{"compound": "CCOCCC(=O)N1C[C@H]2CC[C@@H]1CN(Cc1ccncc1)C2", "inhibition": 11.85}
{"compound": "CCC(=O)Nc1ccc(C(C)Nc2nc3c(cnn3C)c(=O)[nH]2)cc1", "stereo": "configuration not stated", "inhibition": 14.81}
{"compound": "CCCc1cc(C(=O)N[C@H](C)[C@@H](O)c2ccc(O)cc2)n(C)n1", "inhibition": 12.79}
{"compound": "COc1cccc(C(=O)N2CCN(C(=O)CCn3ccnc3)CC2)c1", "inhibition": 11.7}
{"compound": "CCO[C@@H]1CCN(C(=O)N(C)C)[C@@H]1Cc1cnn(C)c1", "inhibition": 20.88}
{"compound": "Cc1nnc(C(C)NCC2(c3ccc(F)cc3)CCCCC2)o1", "stereo": "configuration not stated", "inhibition": 3.553}
{"compound": "Cn1cc(CN2C[C@@H]3CN(Cc4ccoc4)CCO[C@@H]3C2)cn1", "inhibition": 19.61}
{"compound": "FC(F)C(F)(F)COCc1ncnn1-c1ccc2c(c1)OCO2", "inhibition": 8.247}
{"compound": "CCOc1ccc(CCCC(=O)N2CCC(C(=O)NC)C2)cc1C", "stereo": "configuration not stated", "inhibition": 15.45}
{"compound": "CC(C)CCC(=O)N1C[C@H]2CCN[C@H]2C1", "inhibition": 14.84}
{"compound": "Cc1ccc2nc(C)cc(NCCNS(=O)(=O)c3cccnc3)c2c1", "inhibition": 5.319}
{"compound": "FC1(F)CCNCC12CCN(c1cccnc1)C2", "stereo": "configuration not stated", "inhibition": 1.045}
{"compound": "O=S(=O)(c1cccnc1)N1C[C@@H]2COC[C@]2(CN2CCOCC2)C1", "inhibition": 6.574}
{"compound": "CCC(C(=O)NC1CCCC1)n1ccc2ncccc2c1=O", "stereo": "configuration not stated", "inhibition": 15.82}
{"compound": "CCn1cnnc1C1CCN(C(=O)COc2ccccc2)CC1", "inhibition": 15.97}
{"compound": "Fc1ccccc1-c1cccc(C2CCCN(C3CCOCC3)C2)n1", "stereo": "configuration not stated", "inhibition": 8.438}
{"compound": "COCCOCC(=O)N1CCc2cc(Cl)cc(Cl)c2C1", "inhibition": 10.08}
{"compound": "CC(Cn1cccn1)NCc1csc(COc2ccc(F)cc2)n1", "stereo": "configuration not stated", "inhibition": 16.26}
{"compound": "Cn1cc(CN2CCC3(CCCCN3S(C)(=O)=O)CC2)cn1", "inhibition": 6}
{"compound": "COC(=O)CCC(=O)N1CCc2nc(C(=O)N(C)C)sc2CC1", "inhibition": 14.13}
{"compound": "CCC1CN(C(=O)c2cnc(-c3cnn(C)c3)s2)CCO1", "stereo": "configuration not stated", "inhibition": 6.522}
{"compound": "CCn1cc(NC(=O)NCC(O)c2ccccc2)cn1", "stereo": "configuration not stated", "inhibition": 12.68}
{"compound": "Cc1cccc(Nc2ccc(C3CCCCN3)cn2)n1", "stereo": "configuration not stated", "inhibition": 6.824}
{"compound": "CC(=O)N1CC(C)CN(C(=O)c2cscn2)c2ccccc21", "stereo": "configuration not stated", "inhibition": 16.91}
{"compound": "CC(=O)N1CCc2[nH]cnc2C12CCN(C(=O)Cc1cccs1)CC2", "inhibition": 9.483}
{"compound": "CN(C)c1nc2c(c(N3CCC(O)CC3)n1)CN(CC1CCNC1)CC2", "stereo": "configuration not stated", "inhibition": 13.41}
{"compound": "COc1ccccc1CC(=O)N1CCC(NCc2cccnc2)CC1", "inhibition": 5.397}
{"compound": "CC(C)n1ccnc1C1CCN(Cc2ccc(Cl)s2)CC1", "inhibition": 13.39}
{"compound": "CC(Cn1cccn1)NC(=O)Nc1cccnc1", "stereo": "configuration not stated", "inhibition": 13.11}
{"compound": "CCN(C(=O)CN(CC(N)=O)C(C)C)C1=CCCC1", "inhibition": 1.95}
{"compound": "CC(=O)N1CC2(CCN(C(=O)c3ccc4c(c3)OCCO4)CC2)C1", "inhibition": 2.222}
{"compound": "CCOCC(O)CN1CCN(C(=O)C2CCCC2)CC1", "stereo": "configuration not stated", "inhibition": 15.64}
{"compound": "CN(C)C(=O)N1CCn2c(Cn3cccn3)cnc2C1", "inhibition": 10.48}
{"compound": "CCn1nc(C)c2ccn(CC(=O)NC(C)C)c(=O)c21", "inhibition": 3.944}
{"compound": "NCc1cnn(-c2ccccc2C(=O)NCCCn2ccnc2)c1", "inhibition": 13.36}
{"compound": "CC(=O)c1ccc(OCC(=O)NS(=O)(=O)c2ccc(C)s2)cc1", "inhibition": 17.75}
{"compound": "c1cnc(NCC2Cn3nnc(-c4ccsc4)c3CO2)nc1", "stereo": "configuration not stated", "inhibition": 17.58}
{"compound": "CCn1cnnc1C1CCN(C(=O)C(OC)c2ccccc2)CC1", "stereo": "configuration not stated", "inhibition": 9.028}
{"compound": "O=C1NCCCCC1NC(=O)C1(c2ccccc2)CCOCC1", "stereo": "configuration not stated", "inhibition": 6.383}
{"compound": "COCCNC(=O)[C@@H]1CC[C@@H]2[C@@H](CCN2Cc2cnn(C)c2)O1", "inhibition": 17.15}
{"compound": "CCNC(=O)NCc1ccc(CN2CCCC(C)C2)cc1", "stereo": "configuration not stated", "inhibition": 11.18}
{"compound": "O=C(c1ccsc1)N1C[C@@H](CN2CCCC2)[C@@H](CO)C1", "inhibition": 5.854}
{"compound": "Cc1cnc(C(=O)N2CCN(c3ncc4c(n3)CCOC4)CC2)cn1", "inhibition": 15.12}
{"compound": "Cc1nc(CN2CCCC(NCCOc3ccccc3C#N)C2)no1", "stereo": "configuration not stated", "inhibition": 2.535}
{"compound": "CN(Cc1cc(Cl)c2c(c1)OCO2)Cc1cscn1", "inhibition": 9.422}
{"compound": "CS(=O)(=O)Cc1noc(CN2CCN(c3ccccc3Cl)CC2)n1", "inhibition": 10.18}
{"compound": "Cc1ccncc1C(=O)N1CCCC(C(=O)CCc2ccccc2)C1", "stereo": "configuration not stated", "inhibition": 4.438}
{"compound": "CNC(=O)N1CCC2(CC1)C(=O)N(C)c1c(F)cccc12", "inhibition": 4.498}
{"compound": "CC(C)C(=O)N1CCC(c2nc3c([nH]2)CCCNC3=O)CC1", "inhibition": 0.5115}
{"compound": "O=C(CNC(=O)c1ccccc1Cl)Nc1nccs1", "inhibition": 0.7916}
{"compound": "NC(=O)Cn1cc(NC(=O)NCC2CCN(c3ccccc3)C2)cn1", "stereo": "configuration not stated", "inhibition": 10.43}
{"compound": "CC(C)(C)CNC(=O)CNC(=O)C1CC1", "inhibition": 11.59}
{"compound": "Nc1nc2c(c(N3CCC(CCn4cccn4)CC3)n1)CCNCC2", "inhibition": 1.818}

For reference, 8 entries once more:

Compound	inhibition
CC(Cn1cccn1)NCc1csc(COc2ccc(F)cc2)n1 (configuration not stated)	16.26
CCn1nc(C)c2ccn(CC(=O)NC(C)C)c(=O)c21	3.944
Cc1ccc2nc(C)cc(NCCNS(=O)(=O)c3cccnc3)c2c1	5.319
CCn1cc(NC(=O)NCC(O)c2ccccc2)cn1 (configuration not stated)	12.68
CCC(=O)Nc1ccc(C(C)Nc2nc3c(cnn3C)c(=O)[nH]2)cc1 (configuration not stated)	14.81
c1cnc(NCC2Cn3nnc(-c4ccsc4)c3CO2)nc1 (configuration not stated)	17.58
Cc1noc(C)c1-c1ccc(C2CCCN2C(=O)c2cccnn2)nc1 (configuration not stated)	3.859
CCOCC(O)CN1CCN(C(=O)C2CCCC2)CC1 (configuration not stated)	15.64

The values are deposited in ChEMBL (CHEMBL3988442, “University of Dundee, Small-Polar-MMV Screening Library” (2021)).